These are yes or no findings as the source states them, for the method shown. Some binding calls cover weakened binding; strength is not graded here.
B1: PKC1 (yeast two-hybrid, full length) (enzyme, UniProt F7W233 1-1146)
chain: MNDEDKVHDISKKIEREKALINAAQAMRQQTNNEQVRSKLDTQMREGRRNLEFFEEKLRELQMRRLGHGVDNMSLGASPMSGSHRQSVDDFEGHGAPTPPPKEGGRGHSSHQSQGSGPLMPASGPYPGGPPDSAVPRARPNYTRLDLIKFDTPHLGPRIQLMLSQIQFKLNVEEQYLKGIEKMVQLYQMEGDKKSKLDAAAKRVESKQKIVLLKQALKRYEELHIDIDVDGPDDDSINLPALRKPLSGTLSIRILAVKDVDHAPLGRFARSPETFIAVKAEDIIVARTRPSRNDRWEAEFHTFPVDKTNEIEFTVYDKPSEHPVPIAMLWVRISDIVEELRRKKIEAEMTSAGWVSADRVGSRAPPPQFPMGTQSPQFAAPPTSPGSQEQNIMIPPQAPPPSQVVSQPVDGWFNLEPYGQIHLSFNFMKESRPQGMDRLGRKGAVRQRKEEVHEMYGHKFVQKQFYNIMRCALCGDFLKYSAGMQCEDCKYTCHTKCYTSVVTKCISKSNAETDPDEEKINHRIPHRFIPFSNLTANWCCHCGYMLPIGSKKNSRKCSECALTAHAQCVHLVPDFCGMSMAVANQILEGIRTQKKTHKDKASSMSERTLRPGSKTSFSSGSIAQTSTYSGSTAYTSIASPEATEAAKLMYSQTTPRPAGPDRTSTSSTTASAAAAAAMAPKHSSQPSQAGSIPDFGGNYGGSGSYGHPESREDEYNAQQQQGYGSPQQRKYNPADYANIGAYSSPPQAQHPQQQQQQQSPQQVSPMYQQNPQTPISKPQPVAPSYDNQVVPSASGVPVPTKKPLPSATDPGTGMRIGLDHFNFLAVLGKGNFGKVMLAETKKSRKLYAIKVLKKEFIIENDEVESIRSEKRVFLIANRERHPFLTNLHACFQTETRVYFVMEYISGGDLMLHIQRGMFGTKRAQFYAAEVCLALKYFHENGVIYRDLKLDNILLTLDGHIKIADYGLCKEDMWYGSTTSTFCGTPEFMAPEILLDKKYGRAVDWWAFGVLIYQMLLQQSPFRGEDEDEIYDAILADEPLYPIHMPRDSVSILQKLLTREPDQRLGSGPTDAQEIMSQPFFRNINWDDIYHKRVQPPFLPQIKSATDTSNFDSEFTSVTPVLTPVQSVLSQAMQEEFRGFSYTADFE

Protein sequences, listed by entry. Tags and fused reporters are not part of them.
UniProt F7VVV0: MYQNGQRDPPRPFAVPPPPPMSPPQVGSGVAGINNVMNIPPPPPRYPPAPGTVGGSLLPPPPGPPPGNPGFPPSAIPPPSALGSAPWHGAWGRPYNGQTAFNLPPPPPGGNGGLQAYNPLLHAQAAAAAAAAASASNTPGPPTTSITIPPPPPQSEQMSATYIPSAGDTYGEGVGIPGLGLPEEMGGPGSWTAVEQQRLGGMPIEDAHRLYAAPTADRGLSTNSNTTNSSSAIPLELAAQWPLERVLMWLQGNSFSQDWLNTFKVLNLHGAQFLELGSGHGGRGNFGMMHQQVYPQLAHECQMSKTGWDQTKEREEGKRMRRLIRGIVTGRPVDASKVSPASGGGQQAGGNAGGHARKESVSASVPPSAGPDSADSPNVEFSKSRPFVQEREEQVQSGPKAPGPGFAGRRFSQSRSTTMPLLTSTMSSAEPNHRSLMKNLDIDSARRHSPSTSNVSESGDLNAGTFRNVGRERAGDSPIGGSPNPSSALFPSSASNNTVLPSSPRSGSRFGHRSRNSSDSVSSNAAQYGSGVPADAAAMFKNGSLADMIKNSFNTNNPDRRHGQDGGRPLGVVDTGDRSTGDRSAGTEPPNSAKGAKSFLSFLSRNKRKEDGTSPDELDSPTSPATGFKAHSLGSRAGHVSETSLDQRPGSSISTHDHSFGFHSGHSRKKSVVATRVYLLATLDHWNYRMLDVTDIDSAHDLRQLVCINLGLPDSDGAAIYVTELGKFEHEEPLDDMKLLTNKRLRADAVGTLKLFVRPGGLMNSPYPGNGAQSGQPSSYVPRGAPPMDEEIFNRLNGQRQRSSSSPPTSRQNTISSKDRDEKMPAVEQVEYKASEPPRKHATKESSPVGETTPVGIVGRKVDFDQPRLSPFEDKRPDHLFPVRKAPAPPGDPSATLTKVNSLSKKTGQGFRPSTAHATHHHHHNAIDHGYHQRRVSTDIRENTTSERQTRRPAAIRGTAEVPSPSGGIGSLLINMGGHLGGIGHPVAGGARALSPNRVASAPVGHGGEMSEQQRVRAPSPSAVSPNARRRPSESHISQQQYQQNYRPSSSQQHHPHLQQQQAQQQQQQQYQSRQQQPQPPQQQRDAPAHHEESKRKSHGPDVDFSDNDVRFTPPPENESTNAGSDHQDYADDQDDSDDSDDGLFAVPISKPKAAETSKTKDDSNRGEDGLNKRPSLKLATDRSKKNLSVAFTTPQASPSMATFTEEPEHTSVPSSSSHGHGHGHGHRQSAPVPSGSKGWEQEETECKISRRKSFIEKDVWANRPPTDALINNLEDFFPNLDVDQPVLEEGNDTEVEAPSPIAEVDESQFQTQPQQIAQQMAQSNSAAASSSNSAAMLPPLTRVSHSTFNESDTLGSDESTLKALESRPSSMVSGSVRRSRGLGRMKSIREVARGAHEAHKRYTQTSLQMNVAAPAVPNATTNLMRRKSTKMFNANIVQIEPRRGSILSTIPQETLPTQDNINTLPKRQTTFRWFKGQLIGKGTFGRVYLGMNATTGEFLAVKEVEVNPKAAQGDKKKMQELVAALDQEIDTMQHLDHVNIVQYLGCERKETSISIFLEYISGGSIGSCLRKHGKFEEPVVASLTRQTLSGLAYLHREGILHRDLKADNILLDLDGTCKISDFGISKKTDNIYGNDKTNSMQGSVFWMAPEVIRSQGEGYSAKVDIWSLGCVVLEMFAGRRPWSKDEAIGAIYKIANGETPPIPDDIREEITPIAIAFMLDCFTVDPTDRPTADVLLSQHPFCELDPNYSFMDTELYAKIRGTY

Legend:
[1] = molecular target: MIK1 (yeast two-hybrid, full length) (Sordaria macrospora) (UniProt F7VVV0); assay: two-hybrid; reciprocal matrix of GAL4-AD and -BD fusions in diploid yeast, drop-plated on SD lacking leucine, tryptophan, histidine and adenine
[2] = molecular target: PKC1 (yeast two-hybrid, full length) (Sordaria macrospora) (UniProt F7W233); assay: as above

| Molecule | binding [1] | binding [2] |
| --- | --- | --- |
| MIK1 (yeast two-hybrid, full length) (from UniProt F7VVV0 1-1764) (enzyme) | binds |  |
| B1 |  | binds |

From PMC4154660
